These are yes or no findings as the source states them, for the method shown. In cells and extracts the contact can be indirect. Binding can be weak; no strength is given. Sequences can lack the tags named with a protein.

The values below come from paper PMC9339186.

The target in the assay is T1, Myc-tagged recombinant TRIM18 (UniProt O15344).
T1 sequence: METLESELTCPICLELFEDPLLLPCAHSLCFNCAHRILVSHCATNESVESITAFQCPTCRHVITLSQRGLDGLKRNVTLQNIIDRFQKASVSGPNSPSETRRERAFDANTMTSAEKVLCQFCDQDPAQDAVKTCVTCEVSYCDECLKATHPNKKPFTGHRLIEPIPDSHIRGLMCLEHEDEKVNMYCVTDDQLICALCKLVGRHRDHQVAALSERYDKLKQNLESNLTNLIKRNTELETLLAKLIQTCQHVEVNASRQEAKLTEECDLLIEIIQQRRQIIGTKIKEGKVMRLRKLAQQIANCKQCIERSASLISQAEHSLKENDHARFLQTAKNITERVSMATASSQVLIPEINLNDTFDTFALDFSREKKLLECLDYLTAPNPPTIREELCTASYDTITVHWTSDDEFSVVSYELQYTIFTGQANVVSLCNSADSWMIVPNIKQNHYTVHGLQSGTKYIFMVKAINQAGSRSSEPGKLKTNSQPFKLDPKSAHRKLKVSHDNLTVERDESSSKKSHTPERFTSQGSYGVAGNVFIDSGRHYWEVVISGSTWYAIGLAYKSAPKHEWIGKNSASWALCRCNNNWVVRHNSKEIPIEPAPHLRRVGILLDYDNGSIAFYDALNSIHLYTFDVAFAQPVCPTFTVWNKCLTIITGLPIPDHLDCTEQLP
As to the kind of experiment: co-IP; in vitro: purified HA-tagged protein (full-length or truncation) incubated 2 h with purified Myc-tagged partner, beads added for 2 h, immunoprecipitation with anti-Myc, immunoblot with anti-HA or anti-Myc; both purified. On the technique in general: Immunoblotting shows a protein as a band on a membrane.

Consider “HA-tagged M1 catalytic domain of PPM1A (domain or fragment)”, for which the binding result is given as “binds”.
